{
  "source": "patent US9617267B2",
  "about": "“Compounds and methods for kinase modulation, and indications therefor” (Plexxikon Inc., priority 2009, dated 2017)",
  "assay": "Relative solubility by turbidity threshold concentration in aqueous buffers (pH 1.5, 4.5, 6.8, 7.4)",
  "format": "physicochemical",
  "experimental": "As an indication of relative solubility, the turbidity of compounds in aqueous solutions is assessed. To assess possible compound properties in different physiological compartments, such as stomach, intestine, and blood, a series of aqueous buffers with varying pH is used. Thus each compound is diluted into four different physiologically relevant buffers and solution turbidity is measured by spectrophotometry.\nCompounds are dissolved at a concentration of 25 mM in dimethyl sulfoxide, then serially diluted 1:1 into a 96 well plate, diluting 10 times in pure dimethyl sulfoxide, with the final well of each row a dimethyl sulfoxide blank. In an assay plate, 99 μL of appropriate buffer is added to each well, and 1 μL of each sample dilution is added to the buffer, achieving a range of final total concentrations in aqueous solutions having different pH. The buffers used are Simulated Gastric Fluid (SGF-pH 1.5) 0.5M NaCl, pH 1.5; Simulated Intestinal fluid (SIF-pH 4.5 and pH 6.8) 0.05M NaH2PO4, pH 4.5 and 6.8; and Hepes Buffer (HEPES-pH 7.4) 10 mM HEPES, 150 mM NaCl, pH 7.4. Control compounds pyrene, estriol and propranolol HCl are also assessed. Plates are spun and then mixed for 1 minute, and the absorbance is read using a Tecan Safire II to read wavelengths in the visible range (490, 535, and 650 nm) at four locations per well, reflecting the degree of turbidity present. The average optical density for each wavelength in each well is graphed vs. compound concentration, and the concentration at which the curve crosses a threshold O.D. of 0.01 for each wavelength is reported as the endpoint turbidity assay result. The average of the three wavelengths is used to compare turbidity of compounds. Compounds are considered to have low solubility if the threshold concentration is <31.3 μM, moderate solubility if the threshold concentration is 31.3 μM to 250 μM, and high solubility if the threshold concentration is >250 μm.\nThe following table indicates the relative solubility (L=low, M=moderate, H=high) based on turbidity threshold concentration at each pH for exemplary compounds according to the invention as indicated: […]",
  "note": "At least one compound was matched to its structure with a doubt left.",
  "data": [
    {"smiles": "CCCS(=O)(=O)Nc1ccc(F)c(C(=O)c2c[nH]c3ncnc(Nc4ccccc4)c23)c1F", "note": "[P-1048, Propane-1-sulfonic acid [2,4-difluoro-3-(4-phenylamino-7H-pyrrolo[2,3-d]pyrimidine-5-carbonyl)-phenyl]-amide]", "values": [
      {"measurement": "turbidity threshold (L, M, H) 1.4", "setting": "pH 1.4 [sic] (method: SGF pH 1.5)", "result": "M (moderate solubility if the threshold concentration is 31.3 μM to 250 μM)"},
      {"measurement": "turbidity threshold (L, M, H) 4.5", "setting": "pH 4.5 (SIF)", "result": "M (moderate solubility if the threshold concentration is 31.3 μM to 250 μM)"},
      {"measurement": "turbidity threshold (L, M, H) 6.8", "setting": "pH 6.8 (SIF)", "result": "M (moderate solubility if the threshold concentration is 31.3 μM to 250 μM)"},
      {"measurement": "turbidity threshold (L, M, H) 7.4", "setting": "pH 7.4 (HEPES)", "result": "M (moderate solubility if the threshold concentration is 31.3 μM to 250 μM)"}
    ]}
  ]
}
